# Results: patent US4981788A, “Novel acetylpolyamine amidohydrolase” (Kyowa Hakko Kogyo Co., Ltd., priority 1987, dated 1991)
# For at least one compound, name, drawing or mass did not settle the structure.
# What was measured:
# [1] = molecular target: T1, acetylpolyamine amidohydrolase (the present enzyme, product purified to homogeneity) (Mycoplana ramosa, UniProt Q48935); assay: Enzyme activity on acetylpolyamine substrates, product purified to homogeneity (Method 2 / Method 3); format: biochemical, Mycoplana bullata; details: phosphate buffer pH 9.0, substrate 0.833 mM, acetylputrescine = 100
# T1 construct: novel acetylpolyamine amidohydrolase of the present invention accumulated within the grown cells; made in house; host or cells: Mycoplana (natural producer)
# T1 sequence (Q48935 1-341): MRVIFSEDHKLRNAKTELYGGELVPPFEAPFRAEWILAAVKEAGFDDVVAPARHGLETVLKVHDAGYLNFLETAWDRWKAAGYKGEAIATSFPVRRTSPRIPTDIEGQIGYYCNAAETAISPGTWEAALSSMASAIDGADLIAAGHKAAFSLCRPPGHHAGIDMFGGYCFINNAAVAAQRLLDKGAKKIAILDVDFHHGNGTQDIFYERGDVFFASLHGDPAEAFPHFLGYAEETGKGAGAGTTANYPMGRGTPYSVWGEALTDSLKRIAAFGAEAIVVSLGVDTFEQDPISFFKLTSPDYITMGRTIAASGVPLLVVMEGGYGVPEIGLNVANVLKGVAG
# Excerpt: [Method 2] (Assay when acetylputrescine, acetylcadaverine, N^1 -acetylspermidine and N^8 -acetylspermidine are used as substrate:)
# The acetylpolyamine can be hydrolyzed by the acetylpolyamine amidohydrolase, as described in [Method 1], and the corresponding free polyamine thus formed is then oxidized by putrescine oxidase. Putrescine oxidase derived from Micrococcus rubens is known to have an activity upon putrescine, cadaverine and spermidine [Adachi, et al., Agric. Biol. Chem, 30, 1202 (1966)]. […] The actual analytical procedure is as described below.
# The above reagents, (b) through (h), were put in a cuvette (d: 1.0 cm) and the mixture was preincubated at 37° C. for 2 minutes. […] Absorbance at 500 nm was measured over a period of 3 to 5 minutes, and the change in absorbance per minute (ΔODsample) was determined from the linear portion of the plotted curve. […]
# Acetylspermine is hydrolyzed by the action of acetylpolyamine amidohydrolase into free form of spermine. […] Thus, the enzyme activity can be measured by quantitative determination of the hydrogen peroxide according to the method described above. […]
# The concentration of free form of spermine in the reaction mixture can be determined from a calibration curve previously prepared on the basis of aqueous soluitons of free form of spermine with different concentrations. […]
# [2] = test system: E2: Enzyme derived from Arthrobacter sp. (acetylpolyamine amidohydrolase); details: pH 7.0; activity against acetylputrescine defined as 100; cited from earlier work
# [3] = test system: E3: Enzyme derived from Micrococcus luteus (acetylpolyamine amidohydrolase); details: pH 7.0; activity against acetylputrescine defined as 100; cited from earlier work
# [4] = test system: E1: Enzyme derived from Streptomyces avellaneus (acetylpolyamine amidohydrolase); details: cited from earlier work
smiles,measurement,setting,value
CC(=O)NCCCCN [Acetylputrescine],"Relative activity, Mycoplana bullata enzyme",[1],100%
same,"Relative activity, E2",[2],100%
same,"Relative activity, E3",[3],100%
same,"Relative activity, E1","[4]; pH 7.0, activity against acetylputrescine defined as 100",100%
same,"Relative activity, St. avellaneus enzyme","[4]; reported reference data in Table 5, acetylputrescine = 100",100%
same,Km,"[4]; reported reference data in Table 5, read-out: Km, St. avellaneus enzyme",2000 µM
